Laboratory results from PubChem BioAssay AID493014 (National Center for Advancing Translational Sciences (NCATS), 2011).
This is one part of the list. These are further read-outs of the screen, such as a control signal, another cell line or another target. No call is given for them. Most of these compounds were active or inconclusive in the main read-out, so they are no random draw. Words in brackets tell the shape of the fitted curve; partial curves, single points and poor fits give uncertain potencies.

Test: qHTS Assay to Find Inhibitors of Chronic Active B-Cell Receptor Signaling
Conditions: ABC-DLBCL IkBa-CBG/CBR reporter, luminescence ratio (green luciferase fused to IkBa over red control in TMD8 lymphoma cells), 4 h
How it was run: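 Compounds up to 46 uM were incubated four hours with TMD8 cells whose green CBG68 luciferase is fused to IkappaBalpha; red CBR luminescence normalised the signal, and concentration-effect curves were fitted to fusion, red and ratio data.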

[1] = measured here: CBR red luminescence, cell number
[2] = measured here: IkBa-CBG green luminescence

| SMILES | AC50 [1] | AC50 [2] |
| --- | --- | --- |
| O=C(Nc1ccc2c(c1)OCO2)c1ccc(Br)s1 | 25.9 µM [falling, partial curve, poor fit] | – |
| CCCCNC(=O)/C=C/c1ccc(S(=O)(=O)Nc2ccc(OC)cc2)cc1 | 15.8 µM [rising, partial curve, poor fit] | – |
| COc1c2ccoc2nc2c(OC)cccc12 | – | 18.4 µM [falling, partial curve, poor fit] |
| C/C(=N\NC(=O)C1COc2ccccc2O1)c1cccs1 (configuration not stated) | 0.92 µM [rising, full curve, poor fit] | – |
| Cc1ccsc1C1C(C#N)=C(N)N(N(C)C)C2=C1C(=O)CCC2 (configuration not stated) | 31.6 µM [falling, single point] | – |
| CN1CCc2nc(SCC(=O)Nc3ccc(F)cc3)c(C#N)cc2C1 | 7.31 µM [falling, partial curve] | – |
| COc1cc(-n2c(N)c(C(=O)NCc3ccco3)c3nc4ccccc4nc32)cc(OC)c1OC | 29.1 µM [falling, single point] | – |
| CC1(C)CC(Nc2ccc(Nc3ccccc3)cc2)CC(C)(C)N1 | 14.1 µM [falling, partial curve, poor fit] | – |
| CCCc1cc(=O)oc2cc(OC3CCCCC3=O)ccc12 (configuration not stated) | 6.31 µM [rising, single point] | – |
| Cc1cc(C)c(C#N)c(N2CCN(c3ccccc3F)CC2)n1 | 4.47 µM [rising, full curve, poor fit] | – |
| O=C(O)CSC1CC(=O)N(c2ccc(Cl)c(Cl)c2)C1=O (configuration not stated) | 0.82 µM [falling, full curve, poor fit] | – |
| CC(=O)Nc1c(Br)cc(N2C(=O)CCC2=O)cc1Br | 16.4 µM [falling, partial curve, poor fit] | – |
| COc1ccccc1CNc1ncnc2sccc12 | 10 µM [falling, partial curve, poor fit] | – |
| O=C(NCCCN1CCOCC1)c1ccc2c(=O)n(Cc3cccc(Br)c3)c(=S)[nH]c2c1 | 0.1 µM [falling, full curve, poor fit] | – |
| Cc1ccc(-n2ncc3c(N4CCC(C(N)=O)CC4)ncnc32)cc1 | 1.41 µM [rising, partial curve, poor fit] | – |
| C/C(=N/NC(=O)c1ccc(C)s1)c1ccncc1 | 5.01 µM [falling, partial curve] | – |
| CCOC(=O)c1cc2c(ccn2C)n1Cc1ccccc1Cl | 35.5 µM [rising, single point] | – |
| COc1cccc(Cn2c(C3CC3)nc3ccc(NC(=O)c4ccco4)cc3c2=O)c1 | 2.91 µM [rising, partial curve, poor fit] | – |
| O=C(NNc1ncc(C(F)(F)F)cc1Cl)c1c(Cl)cccc1Cl | 22.4 µM [rising, single point] | 28.2 µM [falling, single point] |
| CCN(CC)S(=O)(=O)c1ccc(NC(=O)Nc2cccc(C(F)(F)F)c2)cc1 | 29.1 µM [falling, single point] | – |
| Cc1ccc(SCC(=O)Nc2ccc(N3CCOCC3)cc2)cc1C | 1.84 µM [falling, partial curve, poor fit] | – |

| SMILES | AC50 [1] | AC50 [2] |
| --- | --- | --- |
| Cc1ccc(N/C=C/c2onc(C)c2[N+](=O)[O-])cc1 | 0.112 µM [rising, full curve, poor fit] | – |
| CCC1(C)CC(c2nc(-c3ccc(OC)cc3)cs2)CCS1 (configuration not stated) | 20.6 µM [rising, single point] | – |
| C=CCNC(=S)Nc1ccc(N(C)C)cc1 | 5.62 µM [rising, single point] | – |
| Cc1cc(F)ccc1N1CCC(N2CCN(C(C)C)C(CCO)C2)CC1 (configuration not stated) | 10 µM [rising, partial curve, poor fit] | – |
| Cc1cc(C(=O)NCC(=O)OC(C)C(=O)N2CCOCC2)ccc1[N+](=O)[O-] (configuration not stated) | 29.1 µM [rising, partial curve, poor fit] | – |
| O=C(Nc1cc2c(ccc3ccccc32)oc1=O)C1CCCCC1 | 29.1 µM [rising, single point] | – |
| O=c1oc2ccccc2c(O)c1/C=N/c1ncccn1 | 2.82 µM [falling, partial curve, poor fit] | – |
| CSC(=O)NC(=O)NC(=O)c1ccc([N+](=O)[O-])cc1 | 11.2 µM [rising, partial curve, poor fit] | – |
| CCc1ccc2[nH]c(=O)c(CN(CCN(C)C)C(=S)NCc3ccco3)cc2c1 | 31.6 µM [falling, single point] | – |
| CCN(CC)S(=O)(=O)c1ccc(Cl)c(C(=O)Nc2nnc(C)s2)c1 | 11.2 µM [falling, partial curve, poor fit] | – |
| CN(C)c1ccc(C(CNC(=O)COc2ccc(Cl)cc2)N2CCCC2)cc1 (configuration not stated) | 35.5 µM [falling, single point] | – |
| COc1ccc(CC(=O)Nc2ccc(-c3nc4cc(C)ccc4o3)c(O)c2)cc1OC | 2.31 µM [rising, partial curve, poor fit] | – |
| Cn1c(SCC(=O)NCCc2ccccc2)ncc(C(=O)Nc2ccc(F)cc2)c1=O | 0.517 µM [rising, full curve, poor fit] | – |
| Cn1c(CSc2nc3ccccc3s2)n[nH]c1=S | 2.31 µM [rising, partial curve] | – |
| CCN1CCN(c2ccc(NC(=O)c3ccc(OC)c(S(=O)(=O)N4CCCC4)c3)cc2)CC1 | 18.4 µM [rising, single point] | – |
| COc1cccc(C2NC(=O)NC(C)=C2C(=O)OCC2CCCCC2)c1 (configuration not stated) | 25.1 µM [rising, single point] | – |
| CCc1ccc(NC(=O)CSc2nnc(-c3ccco3)o2)cc1 | 3.55 µM [rising, single point] | – |
| O=C(Nc1cccc(F)c1)OC(CN1CCCCC1)C(F)(F)F (configuration not stated) | 35.5 µM [falling, single point] | – |
| CC(C)CCOCC(=O)Oc1ccccc1C(=O)O | 22.4 µM [rising, partial curve, poor fit] | – |
| Cc1cccc(NS(=O)(=O)c2cccc(C(=O)NNC(=O)c3ccccc3O)c2)c1 | 18.4 µM [falling, partial curve] | – |

Another view of two compounds above:
SMILES,AC50 [1],AC50 [2]
O=C(Nc1cc2c(ccc3ccccc32)oc1=O)C1CCCCC1,"29.1 µM [rising, single point]",–
O=c1oc2ccccc2c(O)c1/C=N/c1ncccn1,"2.82 µM [falling, partial curve, poor fit]",–

Full records, quoted from the list. Values in the order: AC50 [1] | AC50 [2]
CCN(CC)S(=O)(=O)c1ccc(NC(=O)Nc2cccc(C(F)(F)F)c2)cc1 is listed as 29.1 µM [falling, single point] | –
CCN1CCN(c2ccc(NC(=O)c3ccc(OC)c(S(=O)(=O)N4CCCC4)c3)cc2)CC1 is listed as 18.4 µM [rising, single point] | –
